Measured values: the supplement of paper PMC10849652
This is one part of the list.

The chains behind the UniProt entries cited, without tags or fusion partners. Where a name states a change or a piece, a line headed by the entry shows the natural chain unless it says otherwise.
UniProt Q96C90: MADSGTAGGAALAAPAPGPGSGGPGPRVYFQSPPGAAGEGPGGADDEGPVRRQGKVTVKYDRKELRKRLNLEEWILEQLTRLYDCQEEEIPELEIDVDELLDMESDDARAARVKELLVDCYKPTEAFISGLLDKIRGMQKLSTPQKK
UniProt Q8NAV1: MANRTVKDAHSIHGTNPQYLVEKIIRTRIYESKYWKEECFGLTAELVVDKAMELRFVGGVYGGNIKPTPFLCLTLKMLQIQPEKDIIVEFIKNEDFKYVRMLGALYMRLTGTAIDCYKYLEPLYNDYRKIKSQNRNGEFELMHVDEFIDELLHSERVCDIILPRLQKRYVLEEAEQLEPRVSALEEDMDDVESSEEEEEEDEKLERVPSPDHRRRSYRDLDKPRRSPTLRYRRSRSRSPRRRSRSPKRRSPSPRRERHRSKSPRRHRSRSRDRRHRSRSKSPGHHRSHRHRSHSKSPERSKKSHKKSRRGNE
UniProt Q8WUA2: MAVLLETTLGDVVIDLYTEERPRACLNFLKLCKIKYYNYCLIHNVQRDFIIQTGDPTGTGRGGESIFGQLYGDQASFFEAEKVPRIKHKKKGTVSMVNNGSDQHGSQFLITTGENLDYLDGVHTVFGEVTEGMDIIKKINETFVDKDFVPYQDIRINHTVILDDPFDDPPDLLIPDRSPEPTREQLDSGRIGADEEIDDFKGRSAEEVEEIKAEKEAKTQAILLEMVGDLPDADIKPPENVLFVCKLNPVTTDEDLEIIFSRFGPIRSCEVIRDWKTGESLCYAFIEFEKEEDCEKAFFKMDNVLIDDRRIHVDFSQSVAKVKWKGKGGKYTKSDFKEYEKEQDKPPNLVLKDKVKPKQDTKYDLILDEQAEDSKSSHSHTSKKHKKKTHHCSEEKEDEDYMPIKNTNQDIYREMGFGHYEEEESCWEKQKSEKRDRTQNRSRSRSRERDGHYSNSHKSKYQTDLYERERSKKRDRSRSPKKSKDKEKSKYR
UniProt P30041: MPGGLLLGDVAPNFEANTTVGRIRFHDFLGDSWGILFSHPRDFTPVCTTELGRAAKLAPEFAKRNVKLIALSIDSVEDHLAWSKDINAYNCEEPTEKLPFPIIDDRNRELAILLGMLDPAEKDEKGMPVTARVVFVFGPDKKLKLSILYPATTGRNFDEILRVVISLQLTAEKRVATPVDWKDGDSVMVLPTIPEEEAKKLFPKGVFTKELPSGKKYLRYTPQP
UniProt Q8TAE6: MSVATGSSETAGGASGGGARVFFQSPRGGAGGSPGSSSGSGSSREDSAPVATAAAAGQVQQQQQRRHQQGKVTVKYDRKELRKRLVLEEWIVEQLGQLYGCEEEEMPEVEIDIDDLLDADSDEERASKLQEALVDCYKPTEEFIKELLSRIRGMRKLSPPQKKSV
UniProt O60927: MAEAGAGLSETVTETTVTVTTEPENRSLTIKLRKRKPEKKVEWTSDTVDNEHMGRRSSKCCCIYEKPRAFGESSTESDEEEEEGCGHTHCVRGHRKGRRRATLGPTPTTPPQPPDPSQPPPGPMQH
UniProt Q86XN7: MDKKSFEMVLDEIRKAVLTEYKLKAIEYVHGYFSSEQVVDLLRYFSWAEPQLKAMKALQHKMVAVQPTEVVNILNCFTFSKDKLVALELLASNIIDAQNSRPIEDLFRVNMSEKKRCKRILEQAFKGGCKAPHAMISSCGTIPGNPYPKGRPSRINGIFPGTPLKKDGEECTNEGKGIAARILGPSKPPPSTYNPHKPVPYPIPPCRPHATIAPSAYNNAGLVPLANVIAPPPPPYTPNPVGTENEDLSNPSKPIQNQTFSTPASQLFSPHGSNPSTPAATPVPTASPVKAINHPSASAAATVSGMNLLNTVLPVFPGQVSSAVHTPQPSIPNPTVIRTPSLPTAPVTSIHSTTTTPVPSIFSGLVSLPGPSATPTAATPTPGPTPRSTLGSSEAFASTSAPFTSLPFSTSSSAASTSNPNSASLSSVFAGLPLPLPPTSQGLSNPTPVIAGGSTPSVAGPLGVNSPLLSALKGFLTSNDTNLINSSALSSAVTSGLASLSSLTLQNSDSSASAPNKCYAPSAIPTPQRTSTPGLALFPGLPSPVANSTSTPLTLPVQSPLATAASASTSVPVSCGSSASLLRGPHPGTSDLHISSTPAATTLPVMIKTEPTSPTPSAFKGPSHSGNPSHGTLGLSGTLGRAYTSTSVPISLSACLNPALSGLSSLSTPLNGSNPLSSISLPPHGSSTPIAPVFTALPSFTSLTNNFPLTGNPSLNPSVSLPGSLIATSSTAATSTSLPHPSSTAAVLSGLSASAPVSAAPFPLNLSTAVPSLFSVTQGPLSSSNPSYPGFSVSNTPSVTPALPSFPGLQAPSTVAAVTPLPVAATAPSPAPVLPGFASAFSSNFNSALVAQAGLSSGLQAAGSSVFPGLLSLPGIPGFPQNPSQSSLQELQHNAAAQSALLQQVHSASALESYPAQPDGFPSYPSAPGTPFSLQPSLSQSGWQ
UniProt P55345: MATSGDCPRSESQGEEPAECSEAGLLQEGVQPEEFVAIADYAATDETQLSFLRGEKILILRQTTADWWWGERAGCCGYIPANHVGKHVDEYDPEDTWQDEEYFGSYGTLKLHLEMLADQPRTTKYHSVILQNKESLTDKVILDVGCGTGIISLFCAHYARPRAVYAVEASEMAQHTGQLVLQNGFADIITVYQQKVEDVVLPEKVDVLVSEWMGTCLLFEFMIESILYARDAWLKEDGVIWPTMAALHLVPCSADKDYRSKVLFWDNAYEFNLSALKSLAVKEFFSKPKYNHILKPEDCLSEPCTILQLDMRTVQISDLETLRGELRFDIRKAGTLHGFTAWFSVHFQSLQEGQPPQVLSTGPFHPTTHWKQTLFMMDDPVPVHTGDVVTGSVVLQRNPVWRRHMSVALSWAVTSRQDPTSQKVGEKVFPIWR
UniProt Q6NWY9: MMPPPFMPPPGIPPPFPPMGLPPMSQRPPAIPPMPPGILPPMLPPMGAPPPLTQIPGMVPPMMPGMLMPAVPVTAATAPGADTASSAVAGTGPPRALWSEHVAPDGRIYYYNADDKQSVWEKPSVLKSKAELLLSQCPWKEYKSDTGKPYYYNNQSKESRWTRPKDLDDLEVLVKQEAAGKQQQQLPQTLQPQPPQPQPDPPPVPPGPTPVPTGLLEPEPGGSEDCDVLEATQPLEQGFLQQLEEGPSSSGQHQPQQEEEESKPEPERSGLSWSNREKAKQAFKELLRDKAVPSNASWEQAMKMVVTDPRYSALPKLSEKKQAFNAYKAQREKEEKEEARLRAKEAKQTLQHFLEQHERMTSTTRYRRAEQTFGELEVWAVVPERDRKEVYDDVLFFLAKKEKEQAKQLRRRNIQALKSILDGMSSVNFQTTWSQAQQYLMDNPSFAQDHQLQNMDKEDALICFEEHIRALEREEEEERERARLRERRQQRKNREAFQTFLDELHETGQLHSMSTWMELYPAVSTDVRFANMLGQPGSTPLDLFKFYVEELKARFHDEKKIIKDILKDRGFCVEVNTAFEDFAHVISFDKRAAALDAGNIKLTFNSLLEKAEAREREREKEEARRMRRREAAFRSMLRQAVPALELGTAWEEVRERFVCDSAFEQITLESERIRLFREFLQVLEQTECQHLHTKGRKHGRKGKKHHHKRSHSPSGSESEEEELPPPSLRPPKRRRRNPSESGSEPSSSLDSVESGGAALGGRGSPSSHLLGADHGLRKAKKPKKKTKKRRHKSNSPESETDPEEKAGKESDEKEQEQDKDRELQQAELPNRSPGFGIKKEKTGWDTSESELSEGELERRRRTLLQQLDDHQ
UniProt O95685: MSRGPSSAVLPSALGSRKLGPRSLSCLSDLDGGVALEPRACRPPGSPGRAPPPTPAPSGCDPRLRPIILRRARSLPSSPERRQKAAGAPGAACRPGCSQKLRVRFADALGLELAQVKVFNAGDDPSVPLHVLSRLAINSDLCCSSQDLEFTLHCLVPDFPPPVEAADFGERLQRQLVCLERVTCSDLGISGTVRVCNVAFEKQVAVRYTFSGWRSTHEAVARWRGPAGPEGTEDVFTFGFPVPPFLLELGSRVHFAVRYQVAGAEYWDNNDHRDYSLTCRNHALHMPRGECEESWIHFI
UniProt Q13029: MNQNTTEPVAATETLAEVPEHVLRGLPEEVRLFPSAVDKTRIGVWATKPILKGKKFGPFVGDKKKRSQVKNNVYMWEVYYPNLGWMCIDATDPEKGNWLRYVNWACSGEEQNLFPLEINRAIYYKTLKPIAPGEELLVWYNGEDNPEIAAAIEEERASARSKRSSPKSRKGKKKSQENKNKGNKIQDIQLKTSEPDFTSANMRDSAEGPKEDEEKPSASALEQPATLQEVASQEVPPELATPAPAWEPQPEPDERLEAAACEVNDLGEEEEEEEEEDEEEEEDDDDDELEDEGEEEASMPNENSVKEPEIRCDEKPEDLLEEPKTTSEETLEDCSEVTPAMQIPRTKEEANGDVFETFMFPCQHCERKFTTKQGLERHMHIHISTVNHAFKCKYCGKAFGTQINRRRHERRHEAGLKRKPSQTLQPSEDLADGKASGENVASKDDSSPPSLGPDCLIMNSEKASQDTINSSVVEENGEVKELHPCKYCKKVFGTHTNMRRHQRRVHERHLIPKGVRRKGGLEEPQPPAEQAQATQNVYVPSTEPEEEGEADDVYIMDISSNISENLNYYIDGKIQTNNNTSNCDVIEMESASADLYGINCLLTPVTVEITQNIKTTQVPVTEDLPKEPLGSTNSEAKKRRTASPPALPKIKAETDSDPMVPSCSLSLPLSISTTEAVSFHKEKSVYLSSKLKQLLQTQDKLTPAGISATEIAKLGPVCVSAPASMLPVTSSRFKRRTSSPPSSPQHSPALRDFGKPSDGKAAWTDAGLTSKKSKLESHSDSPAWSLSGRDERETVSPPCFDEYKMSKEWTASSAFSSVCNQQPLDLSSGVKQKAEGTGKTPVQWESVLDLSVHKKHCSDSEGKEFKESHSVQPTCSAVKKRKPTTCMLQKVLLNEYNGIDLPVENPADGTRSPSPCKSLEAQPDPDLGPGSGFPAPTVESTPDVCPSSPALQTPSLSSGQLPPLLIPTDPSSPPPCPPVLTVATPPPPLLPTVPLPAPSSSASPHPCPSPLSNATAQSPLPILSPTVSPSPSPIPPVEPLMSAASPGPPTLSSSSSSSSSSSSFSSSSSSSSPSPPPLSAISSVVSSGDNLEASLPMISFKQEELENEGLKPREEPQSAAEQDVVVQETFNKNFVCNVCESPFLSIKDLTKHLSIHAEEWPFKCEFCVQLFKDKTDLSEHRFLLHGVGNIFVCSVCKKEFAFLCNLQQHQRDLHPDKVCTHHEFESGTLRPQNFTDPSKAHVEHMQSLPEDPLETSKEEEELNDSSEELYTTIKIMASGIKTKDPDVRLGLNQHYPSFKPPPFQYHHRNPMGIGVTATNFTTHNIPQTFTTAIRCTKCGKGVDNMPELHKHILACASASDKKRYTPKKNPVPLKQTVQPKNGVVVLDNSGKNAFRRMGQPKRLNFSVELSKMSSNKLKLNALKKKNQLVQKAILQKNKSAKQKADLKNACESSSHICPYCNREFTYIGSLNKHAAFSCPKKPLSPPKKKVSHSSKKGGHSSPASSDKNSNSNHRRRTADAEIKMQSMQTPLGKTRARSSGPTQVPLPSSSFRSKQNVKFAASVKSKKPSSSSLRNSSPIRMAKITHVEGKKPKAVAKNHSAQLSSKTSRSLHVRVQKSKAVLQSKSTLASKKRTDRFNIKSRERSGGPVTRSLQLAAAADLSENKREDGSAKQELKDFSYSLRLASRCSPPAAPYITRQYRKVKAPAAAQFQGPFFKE
UniProt Q9H7J1: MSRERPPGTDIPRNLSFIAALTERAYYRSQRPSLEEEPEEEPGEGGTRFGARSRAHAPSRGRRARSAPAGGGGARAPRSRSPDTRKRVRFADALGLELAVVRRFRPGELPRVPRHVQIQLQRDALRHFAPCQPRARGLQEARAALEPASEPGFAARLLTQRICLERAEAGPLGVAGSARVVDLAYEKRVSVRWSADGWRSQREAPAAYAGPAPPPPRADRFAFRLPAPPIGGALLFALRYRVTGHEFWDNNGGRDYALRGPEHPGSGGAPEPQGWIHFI
UniProt Q9Y5P8: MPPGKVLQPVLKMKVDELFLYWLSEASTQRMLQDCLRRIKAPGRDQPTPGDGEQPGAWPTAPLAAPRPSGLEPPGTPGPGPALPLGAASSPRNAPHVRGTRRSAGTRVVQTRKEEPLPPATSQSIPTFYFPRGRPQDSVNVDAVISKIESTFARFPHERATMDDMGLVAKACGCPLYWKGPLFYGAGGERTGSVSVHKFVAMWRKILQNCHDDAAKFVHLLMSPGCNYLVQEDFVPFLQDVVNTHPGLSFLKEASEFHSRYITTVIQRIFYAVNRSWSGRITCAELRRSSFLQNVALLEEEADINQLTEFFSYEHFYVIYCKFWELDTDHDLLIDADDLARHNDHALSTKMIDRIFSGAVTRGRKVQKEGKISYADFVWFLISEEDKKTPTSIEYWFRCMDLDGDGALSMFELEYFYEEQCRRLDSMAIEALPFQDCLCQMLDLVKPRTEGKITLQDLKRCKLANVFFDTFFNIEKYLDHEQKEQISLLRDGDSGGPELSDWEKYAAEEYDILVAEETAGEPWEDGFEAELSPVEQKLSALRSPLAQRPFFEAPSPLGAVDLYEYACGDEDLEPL

Tests used:
Assay in all cases: log2 fold change, soluble protein after heating vs DMSO (PISA); higher = thermal stabilisation; K562 lysate, 10 uM; active = over 0.2 and 3.5 SD of the protein, either way, in both replicates (recomputed)
nilotinib = compound: Cc1cn(-c2cc(NC(=O)c3ccc(C)c(Nc4nccc(-c5cccnc5)n4)c3)cc(C(F)(F)F)c2)cn1 [nilotinib]
Procedure, shortened: (§1)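 Pellets of K562 cells were dounce-homogenised in PBS pH 7.4 with 1 mM MgCl2, and the crude extract was held at 1 mg/mL protein for a 30 min treatment with 10 μM compound. Aliquots were heated for 3 min over 48°C-58°C and pooled before NP-40 was added to 0.5% at 4°C. The supernatant from 21,000xg for 90 min was quantified by TMTpro 16plex LC-MS/MS with channel sums equalised. Values are reported from duplicates as log-two fold change in thermal stability relative to solvent controls.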

[1] = compound: Cc1nc(Nc2n[nH]c3c2CN(C(=O)N[C@H](CN(C)C)c2ccccc2)C3(C)C)c2sccc2n1
Procedure, shortened: as §1

dasatinib = compound: Cc1nc(Nc2ncc(C(=O)Nc3c(C)cccc3Cl)s2)cc(N2CCN(CCO)CC2)n1 [dasatinib]
Procedure, shortened: as §1

[2] = compound: Cc1ncc(-c2ccnc(Nc3ccc(S(C)(=O)=O)cc3)n2)n1C(C)C
Procedure, shortened: as §1

[3] = compound: Cn1cc(-c2ccc3c(c2)CCN3C(=O)Cc2cccc(C(F)(F)F)c2)c2c(N)ncnc21
Procedure, shortened: as §1

quisinostat = compound: Cn1cc(CNCC2CCN(c3ncc(C(=O)NO)cn3)CC2)c2ccccc21 [quisinostat]
Procedure, shortened: as §1

tipifarnib = compound: Cn1cncc1[C@@](N)(c1ccc(Cl)cc1)c1ccc2c(c1)c(-c1cccc(Cl)c1)cc(=O)n2C [tipifarnib]
Procedure, shortened: as §1

[4] = compound: NC(=O)Nc1cc(-c2cccc(F)c2)sc1C(=O)N[C@H]1CCCNC1
Procedure, shortened: as §1

[5] = compound: NC1(c2ccc(-c3nc4ccn5c(=O)[nH]nc5c4cc3-c3ccccc3)cc2)CCC1
Procedure, shortened: as §1

[6] = compound: NC(=O)c1cnc(N[C@@H]2CCCC[C@@H]2N)nc1Nc1cccc(-n2nccn2)c1
Procedure, shortened: as §1

Row | Target | log2 fold change (nilotinib) | log2 fold change [1] | log2 fold change (dasatinib) | log2 fold change [2] | log2 fold change [3] | log2 fold change (quisinostat) | log2 fold change (tipifarnib) | log2 fold change [4] | log2 fold change [5] | log2 fold change [6]
1 | PRIMPOL (UniProt Q96LW4) | inactive: 0.112 | inactive: -0.089 | inactive: 0.034 | inactive: -0.15 | inactive: -0.037 | inactive: -0.039 | inactive: 0.17 | inactive: 0 | inactive: -0.126 | –
2 | PRPF38B (UniProt Q5VTL8) | inactive: 0.03 | inactive: -0.005 | inactive: -0.003 | inactive: -0.005 | inactive: 0.014 | inactive: -0.01 | inactive: -0.003 | inactive: -0.011 | inactive: -0.028 | inactive: -0.035
3 | PPP1R14B (UniProt Q96C90) | inactive: 0.009 | inactive: -0.087 | inactive: -0.016 | inactive: -0.029 | inactive: -0.04 | inactive: -0.021 | inactive: 0.096 | inactive: 0.024 | inactive: 0.024 | inactive: -0.018
4 | PRPF6 (UniProt O94906) | inactive: -0.001 | inactive: 0.021 | inactive: -0.036 | inactive: -0.005 | inactive: 0.026 | inactive: -0.067 | inactive: 0.008 | inactive: 0.044 | inactive: -0.019 | inactive: 0.022
5 | PRPF38A (UniProt Q8NAV1) | inactive: 0.076 | inactive: 0.018 | inactive: -0.055 | inactive: -0.088 | inactive: -0.001 | active: -0.452 | inactive: -0.016 | inactive: 0.092 | inactive: 0.049 | inactive: 0.003
6 | PRKAB1 (UniProt Q9Y478) | inactive: -0.018 | inactive: 0.109 | inactive: 0.038 | inactive: 0.102 | inactive: 0.012 | inactive: -0.072 | inactive: -0.037 | inactive: 0.092 | inactive: 0.023 | inactive: 0.024
7 | PPIL4 (UniProt Q8WUA2) | inactive: -0.019 | inactive: 0.031 | inactive: 0.052 | inactive: -0.02 | inactive: 0.013 | inactive: -0.033 | inactive: 0.009 | inactive: -0.01 | inactive: -0.042 | inactive: 0.012
8 | PRDX6 (UniProt P30041) | inactive: 0 | inactive: -0.006 | inactive: 0.021 | inactive: -0.007 | inactive: -0.021 | inactive: 0.015 | inactive: 0.021 | inactive: -0.008 | inactive: 0.009 | inactive: -0.002
9 | PPP1R14C (UniProt Q8TAE6) | inactive: 0.075 | inactive: -0.003 | inactive: 0.105 | inactive: -0.043 | inactive: -0.173 | – | inactive: 0.073 | – | – | inactive: -0.184
10 | PPP6C isoform 3 (UniProt O00743) | inactive: 0.029 | inactive: 0.012 | inactive: 0.008 | inactive: 0.006 | inactive: -0.011 | inactive: 0.009 | inactive: 0.023 | inactive: -0.009 | inactive: 0.006 | inactive: 0.005
11 | PPP1R11 (UniProt O60927) | inactive: -0.03 | inactive: 0.035 | inactive: -0.051 | inactive: 0.074 | inactive: -0.055 | inactive: -0.131 | inactive: -0.001 | inactive: 0.01 | inactive: 0.078 | inactive: -0.067
12 | PRPF4 (UniProt O43172) | inactive: 0.024 | inactive: -0.018 | inactive: -0.008 | inactive: 0.003 | inactive: -0.001 | inactive: 0.016 | inactive: 0.023 | inactive: -0.015 | inactive: 0.001 | inactive: 0.004
13 | PRKD3 (UniProt O94806) | inactive: 0.054 | inactive: -0.086 | – | inactive: -0.03 | – | inactive: -0.014 | inactive: 0.087 | inactive: -0.174 | inactive: 0.054 | inactive: 0.001
14 | PPP1R14A, A0A0B4J2A3 | – | – | – | – | – | – | – | – | inactive: -0.347 | inactive: 0.064
15 | PRKDC (UniProt P78527) | inactive: -0.015 | inactive: -0.01 | – | inactive: 0.188 | inactive: 0.038 | inactive: -0.093 | inactive: -0.011 | inactive: 0.004 | inactive: -0.073 | inactive: 0.123
16 | PPP1R12C isoform 3 (UniProt Q9BZL4) | – | – | – | – | – | inactive: -0.025 | – | inactive: 0.08 | – | –
17 | PPP1R13L (UniProt Q8WUF5) | inactive: 0.179 | inactive: -0.196 | – | inactive: 0.294 | – | inactive: 0.003 | inactive: 0.245 | inactive: 0.036 | inactive: 0.02 | inactive: -0.004
18 | PPIP5K2 (UniProt H0Y9S9) | – | – | inactive: -0.074 | – | inactive: 0.052 | – | – | – | inactive: 0.052 | inactive: 0.142
19 | PPME1 (UniProt Q9Y570) | – | – | inactive: 0.032 | – | inactive: -0.08 | – | – | – | inactive: 0.027 | inactive: 0.048
20 | PPP1R16A (UniProt Q96I34) | – | – | – | – | – | – | – | – | inactive: -0.115 | inactive: -0.204
21 | PRELID1 (UniProt Q9Y255) | inactive: -0.012 | inactive: -0.001 | – | inactive: -0.026 | – | inactive: 0.113 | inactive: 0.006 | inactive: 0.037 | – | –
22 | PROSER1 (UniProt Q86XN7) | inactive: 0.109 | inactive: 0.056 | inactive: -0.224 | inactive: -0.036 | inactive: 0.011 | – | inactive: -0.077 | – | inactive: 0.175 | inactive: 0.05
23 | PROSER3, A0A2R8Y8D9 | – | – | inactive: 0.052 | – | inactive: 0.077 | inactive: -0.004 | – | inactive: 0.084 | – | –

Row | Target | log2 fold change (nilotinib) | log2 fold change [1] | log2 fold change (dasatinib) | log2 fold change [2] | log2 fold change [3] | log2 fold change (quisinostat) | log2 fold change (tipifarnib) | log2 fold change [4] | log2 fold change [5] | log2 fold change [6]
24 | PREP (UniProt H0Y5Y0) | – | – | – | – | – | – | – | – | – | inactive: -0.087
25 | PRMT2 (UniProt P55345) | – | – | inactive: 0.141 | – | inactive: 0.133 | – | – | – | – | inactive: 0.068
26 | PRPF40A isoform 3 (UniProt O75400) | – | – | – | – | – | – | – | – | inactive: 0.029 | inactive: -0.105
27 | PRPF40B (UniProt Q6NWY9) | – | – | – | – | – | inactive: -0.023 | – | inactive: 0.014 | – | –
28 | PPP6R3 isoform 2 (UniProt Q5H9R7) | inactive: -0.222 | inactive: -0.178 | – | inactive: 0.237 | – | – | inactive: -0.05 | – | inactive: 0.425 | –
29 | PPP1R3D (UniProt O95685) | inactive: -0.034 | inactive: -0.088 | – | inactive: 0.129 | – | inactive: -0.005 | inactive: 0.006 | inactive: -0.008 | inactive: 0.106 | inactive: -0.005
30 | PRDM2 (UniProt Q13029) | – | – | inactive: 0.067 | – | inactive: -0.057 | – | – | – | inactive: -0.08 | inactive: -0.001
31 | PRDM10 isoform 6 (UniProt Q9NQV6) | – | – | – | – | – | – | – | – | inactive: -0.038 | inactive: 0.118
32 | PPP1R12B isoform 6 (UniProt O60237) | – | – | inactive: -0.065 | – | inactive: 0.134 | active: -0.531 | – | inactive: 0.006 | inactive: -0.075 | inactive: 0.05
33 | PPP1R3E (UniProt Q9H7J1) | – | – | – | – | – | – | – | – | inactive: -0.028 | –
34 | PPP2R3B (UniProt Q9Y5P8) | – | – | – | – | – | inactive: -0.058 | – | inactive: 0.003 | – | inactive: -0.054
35 | PPT2, A0A140T9Y1 | inactive: -0.054 | inactive: 0.086 | – | inactive: 0.089 | – | – | inactive: 0.1 | – | – | –
36 | PPP2R3C (UniProt Q969Q6) | inactive: -0.139 | inactive: 0.057 | inactive: -0.061 | inactive: -0.13 | inactive: -0.009 | – | inactive: 0.057 | – | inactive: 0.062 | inactive: 0.038
37 | PROSER3 (UniProt Q2NL68) | – | – | – | – | – | inactive: 0.035 | – | inactive: 0.068 | inactive: 0.06 | –
38 | PPP1R7 (UniProt C9JD73) | – | – | – | – | – | – | – | – | – | inactive: -0.17
39 | PRG2 (UniProt P13727) | – | – | inactive: -0.119 | – | inactive: -0.028 | inactive: 0.061 | – | inactive: 0.057 | – | inactive: 0.038
40 | PPP2CA (UniProt E7ESG8) | inactive: 0.025 | inactive: -0.108 | – | inactive: -0.232 | – | – | inactive: 0.356 | – | – | –
41 | PRDM15 (UniProt P57071) | – | – | inactive: 0.018 | – | inactive: 0.334 | – | – | – | – | –
42 | PPP2R5B (UniProt Q15173) | – | – | inactive: 0.018 | – | inactive: 0.021 | inactive: 0.058 | – | inactive: -0.025 | inactive: -0.015 | inactive: 0.011
43 | PPP1R7 isoform 2 (UniProt Q15435) | – | – | – | – | – | – | – | – | – | inactive: 0.109
44 | PPTC7 (UniProt Q8NI37) | – | – | inactive: 0.043 | – | inactive: 0.176 | – | – | – | – | –
45 | PPM1J (UniProt Q5JR12) | – | – | – | – | – | – | – | – | – | inactive: 0.144
46 | PPM1H (UniProt Q9ULR3) | – | – | inactive: 0 | – | inactive: 0.001 | inactive: -0.036 | – | inactive: -0.041 | inactive: -0.07 | inactive: 0

In a second layout: entries from further up

| Row | Target | log2 fold change (nilotinib) | log2 fold change [1] | log2 fold change (dasatinib) | log2 fold change [2] | log2 fold change [3] | log2 fold change (quisinostat) | log2 fold change (tipifarnib) | log2 fold change [4] | log2 fold change [5] | log2 fold change [6] |
| --- | --- | --- | --- | --- | --- | --- | --- | --- | --- | --- | --- |
| 40 | PPP2CA (UniProt E7ESG8) | inactive: 0.025 | inactive: -0.108 | – | inactive: -0.232 | – | – | inactive: 0.356 | – | – | – |
| 41 | PRDM15 (UniProt P57071) | – | – | inactive: 0.018 | – | inactive: 0.334 | – | – | – | – | – |
